# Test results as given in PubChem BioAssay (NCATS).
# The chains behind the UniProt entries cited, without tags or fusion partners.
# UniProt P07203, whole entry, looked up: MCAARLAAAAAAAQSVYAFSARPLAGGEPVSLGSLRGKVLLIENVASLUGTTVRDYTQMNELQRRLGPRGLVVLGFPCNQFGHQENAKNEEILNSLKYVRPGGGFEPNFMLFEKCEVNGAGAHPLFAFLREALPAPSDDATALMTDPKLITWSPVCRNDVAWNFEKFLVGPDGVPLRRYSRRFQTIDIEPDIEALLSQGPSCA
# Inconclusive means that the source gave no clear call. Such entries were picked first, then a sample of the others. For part of these data: Potencies beside an inconclusive call are fits to weak or partial responses and may not hold up. The source made the active and inactive calls. The call rests on the fitted dose curve; in most records, active means well fitted curve in the direction sought with a large enough effect; inconclusive means small, poorly fitted or top-dose-only effect, or another doubt; inactive means no such curve, though single readings can be large; an effect the other way counts as inactive or inconclusive.
# What was measured:
# [1] = qHTS Assay for Identification of Small Molecule Agonists for NFkB Signaling Pathway. (AID 624478)
# Outline: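 NFkB-bla ME-180 cells carry a beta-lactamase reporter. They received compound plus TNF alpha at 10 pM final (its EC50) for 5 h at 37 C. Reporter activity was read as 460/530 nm emission ratio after 2 h LiveBLAzer substrate loading.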
# [2] = test system: Zika virus NS2B-NS3 protease (unlinked complex); experiment: Primary screen GU Rhodamine qHTS for Zika virus inhibitors: Unlinked NS2B-NS3 protease assay (AID 1347159); further: nearly all actives have a fitted effect of over 60% in size
# Outline: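 Percent inhibition derives from the 15-min fluorescence change (ex 480, em 540 nm), normalized to no-enzyme and no-inhibitor wells. Reactions contained 25 nM NS2B-NS3 complex and 1.5 microM substrate in 10 mM Tris-HCl pH 8.0.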
# [3] = Primary redox qHTS assay for identification of artifact compounds. (AID 1845223); further: potency means the concentration at half of the fitted maximal effect
# Outline: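 Amplex Red (25 uM) and HRP (250 mU/mL) in HBSS, with compounds for 15 min, then 250 uM DTT for 30 min, room temperature, dark. Fluorescence 525/598 nm read; normalized to DMSO and 10 uM DA3003; Hill fit.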
# [4] = Quantitative High-Throughput drug screen in 47 multiple myeloma cell lines against the NCATS MIPE library collection: ARD_JJKsccE7 cell viability assay (AID 1918929; further: potency means the concentration at half of the fitted maximal effect)
# Outline: (§1)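 Relative luminescence from CellTiter-Glo served as the viability signal, referenced to DMSO-treated (100%) and cell-free medium (0%) controls. Treatment lasted 48 hours at 37C with 500 cells per well.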
# [5] = Identifying Small Molecule Inhibitors of Pancreatic Cancer Stem Cells (SN12C, Adherent) (AID 1259358);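 further: cell survival measured after 48 h of compound exposure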; further: potency means the concentration at half of the fitted maximal effect
# Outline: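 Adherent (2D) versus sphere (3D) formats; spheres generated 14 d in SCM beforehand. Compound transferred by pin tool after 4 h, 48 h incubation, CellTiter-Glo endpoint.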
# [6] = qHTS of pediatric cancer cell lines to identify multiple opportunities for drug repurposing: Confirmatory screen for Rh41 cells (AID 1347123);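 further: potency means the concentration at half of the fitted maximal effect; 48 h compound exposure; nearly all actives have a fitted effect of over 60% in size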
# Outline: (§2)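 Cells (500-1,000/well) rested 5 h, then received compounds for 48 h; metabolically active cells were measured by CellTiter-Glo luminescence. Final concentrations spanned up to 46 µM (MIPE, 11-point) or 0.59 nM-46 µM (NPC, 8-point) in primary screens, 11-point in follow-ups.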
# [7] = qHTS of pediatric cancer cell lines to identify multiple opportunities for drug repurposing: Confirmatory screen for BT-37 cells (AID 1347117);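 further: potency means the concentration at half of the fitted maximal effect; viability measured after 48 h of compound exposure; nearly all actives have a fitted effect of over 55% in size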
# Outline: as §2
# [8] = Quantitative High-Throughput drug screen in 47 multiple myeloma cell lines against the NCATS MIPE library collection: FR4_PLB cell viability assay (AID 1918924; further: potency means the concentration at half of the fitted maximal effect; nearly all actives have a fitted effect of over 35% in size)
# Outline: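 Luminescent ATP measurement with CellTiter-Glo gives viability, scaled between DMSO-only wells (100%) and media-only wells (0%). Cells, 500 per well, faced library compounds for 48 hours at 37C.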
# [9] = target: Glutathione peroxidase 1 (Homo sapiens) (UniProt P07203); experiment: Primary qHTS Assay for Inhibitors of Recombinant Selenoprotein Glutathione Peroxidase 1 (GPX1) (AID 1845191); conditions: activity, negative = inhibition: at 48.8 µM (top of the series); further: potency means the concentration at half of the fitted maximal effect; nearly all actives have a fitted effect of over 65% in size
# Outline: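 10 nM GPX1 + cpd, 30 min RT; start w/ 1 mM GSH, 0.5 mM cumene hydroperoxide, 0.5 mM NADPH, 100 nM GR, 0.01% BSA; buffer 50 mM Tris-HCl pH 7.5, 2 mM EDTA, 150 mM NaCl; Fl 340/450, 0 & 15 min.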
# [10] = P-glycoprotein substrates identified in KB-3-1 adenocarcinoma cell line, qHTS therapeutic library screen (AID 1346986); conditions: KB-3-1 parental cells viability, CellTiter-Glo, 72 h; series mostly up to 44.5 µM;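 further: potency means the concentration at half of the fitted maximal effect; potency is for cytotoxicity meaning loss of cell viability; nearly all actives have a fitted effect of over 60% in size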
# Outline: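 Cells seeded 500/well in DMEM/10% FCS; compounds pinned in dose-response; 72 h incubation; CellTiter-Glo added, 5 min, luminescence. KB-8-5-11 run ±tariquidar to test reversal of P-gp resistance.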
# [11] = Quantitative High-Throughput drug screen in 47 multiple myeloma cell lines against the NCATS MIPE library collection: KMS26_JCRB cell viability assay (AID 1918975); conditions: KMS26 myeloma cells viability, CellTiter-Glo ATP, 48 h; series mostly up to 45.8 µM; further: potency means the concentration at half of the fitted maximal effect; nearly all actives have a fitted effect of over 45% in size
# Outline: as §1
smiles,measurement,setting,value
CNC(=O)c1cc(Oc2ccc(NC(=O)Nc3cc(C(C)(C)C)nn3-c3ccc4ncccc4c3)c(F)c2)ccn1,Potency,[1],inactive
same,Potency,[2],inactive
same,Potency,[3],"inconclusive: 18.9 µM [activator, single point]"
same,Potency,[4],active: 9.35 µM
COc1cc(=C2C=c3ccccc3=N2)[nH]c1=Cc1[nH]c(C)cc1C,Potency,[1],"inconclusive: 5.26 µM [activator, partial curve]"
same,Potency,[5],"inconclusive: 20.9 µM [cytotoxic, partial curve]"
same,Potency,[6],"inconclusive: 1.95 µM [cytotoxic, full curve, poor fit]"
same,Potency,[4],"inconclusive: 9.35 µM [cytotoxic, single point]"
Cn1cncc1[C@@](N)(c1ccc(Cl)cc1)c1ccc2c(c1)c(-c1cccc(Cl)c1)cc(=O)n2C,Potency,[5],"inconclusive: 23.5 µM [cytotoxic, partial curve]"
C[C@]12CCC(=O)C=C1CC[C@@H]1[C@@H]2[C@@H](O)C[C@@]2(C)[C@H]1CC[C@]2(O)C(=O)CO,Potency,[5],"inconclusive: 0.0418 µM [cytotoxic, partial curve, poor fit]"
Cc1c(CN2CCN(C(=O)C(C)C)CC2)sc2c(N3CCOCC3)nc(-c3cnc(N)nc3)nc12,Potency,[5],active: 0.0935 µM
Cc1cc(Nc2cc(N3CCN(C)CC3)nc(Sc3ccc(NC(=O)C4CC4)cc3)n2)n[nH]1,Potency,[7],"inconclusive: 14.7 µM [cytotoxic, partial curve]"
same,Potency,[3],"inconclusive: 3.36 µM [activator, full curve]"
same,Potency,[8],"inconclusive: 33.2 µM [cytotoxic, single point]"
same,Potency,[4],"inconclusive: 0.743 µM [cytotoxic, partial curve, poor fit]"
Cc1cc(Nc2cc(NC(=O)c3c(Cl)cccc3Cl)ccn2)nc(N)n1,Potency,[5],"inconclusive: 29.6 µM [cytotoxic, single point]"
CC(=O)NC(C)c1ccc(Oc2ccc(OC(C)C)cc2)cc1 (centres undefined),Potency,[5],inactive
O=c1[nH]nc(Sc2ncc([N+](=O)[O-])s2)n1-c1ccc2c(c1)OCCO2,Potency,[5],"inconclusive: 33.2 µM [cytotoxic, single point]"
same,Potency,[6],active: 10.4 µM
same,Potency,[9],"inconclusive: 3.25 µM [inhibitor, full curve]"
Cn1c(Nc2ccc(C(F)(F)F)cc2)nc2cc(Oc3ccnc(-c4ncc(C(F)(F)F)[nH]4)c3)ccc21,Potency,[10],"inconclusive: 29.1 µM [inhibitor, single point]"
same,Potency,[6],"inconclusive: 16.5 µM [cytotoxic, partial curve, poor fit]"
same,Potency,[11],"inconclusive: 18.7 µM [cytotoxic, partial curve, poor fit]"
O=C(OCC#CCSc1nnc(-c2ccc3ccccc3c2)o1)c1cc2ccccc2s1,Potency,[1],"inconclusive: 33.2 µM [activator, single point]"

# 2 entries drawn at random from those above, as already listed:
smiles,measurement,setting,value
Cc1cc(Nc2cc(N3CCN(C)CC3)nc(Sc3ccc(NC(=O)C4CC4)cc3)n2)n[nH]1,Potency,[3],"inconclusive: 3.36 µM [activator, full curve]"
COc1cc(=C2C=c3ccccc3=N2)[nH]c1=Cc1[nH]c(C)cc1C,Potency,[4],"inconclusive: 9.35 µM [cytotoxic, single point]"
